This passage reports binding results from paper doi:10.1101/129551.

The chains behind the UniProt entries cited, without tags or fusion partners. Residues count along the entry.
UniProt Q62277: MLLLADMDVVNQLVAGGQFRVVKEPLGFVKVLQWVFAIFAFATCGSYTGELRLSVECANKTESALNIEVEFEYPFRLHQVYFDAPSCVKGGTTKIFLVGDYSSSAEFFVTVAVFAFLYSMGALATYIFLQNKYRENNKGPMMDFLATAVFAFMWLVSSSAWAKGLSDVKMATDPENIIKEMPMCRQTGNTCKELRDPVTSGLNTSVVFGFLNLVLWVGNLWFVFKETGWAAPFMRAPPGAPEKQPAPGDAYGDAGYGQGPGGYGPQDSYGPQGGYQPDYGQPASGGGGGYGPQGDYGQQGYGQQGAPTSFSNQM
UniProt P05067, residues 672-713: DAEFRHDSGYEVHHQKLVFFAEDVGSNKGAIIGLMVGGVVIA
UniProt P63044: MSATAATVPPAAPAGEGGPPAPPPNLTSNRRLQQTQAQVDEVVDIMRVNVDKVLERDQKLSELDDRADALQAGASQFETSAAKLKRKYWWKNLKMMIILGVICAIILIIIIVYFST
UniProt Q8BGN8: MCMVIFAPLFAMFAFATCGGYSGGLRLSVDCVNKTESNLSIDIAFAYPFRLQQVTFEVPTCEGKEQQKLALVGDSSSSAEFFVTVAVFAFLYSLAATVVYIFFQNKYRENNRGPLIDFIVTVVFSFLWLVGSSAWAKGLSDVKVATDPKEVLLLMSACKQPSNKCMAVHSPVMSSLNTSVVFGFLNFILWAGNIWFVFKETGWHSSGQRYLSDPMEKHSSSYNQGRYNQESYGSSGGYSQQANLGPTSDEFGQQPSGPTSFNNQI

The target of experiment [1] is synaptophysin (SYP), endogenous mouse (mouse (endogenous in cortical neurons and brain synaptosomes)) (UniProt Q62277). The experiment is described as follows: co-IP.
The target of a further experiment is β-amyloid peptide Aβ42 (UniProt P05067). The experiment is described as follows: pull-down.
In experiment [2] the target is synaptobrevin 2 (VAMP2), endogenous mouse (mouse (endogenous in cortical neurons and brain synaptosomes)) (UniProt P63044). The experiment is described as follows: co-IP.

Results are given in words; binding and its absence hold for the method and conditions named. Binding seen in cells or lysates may run through a third protein. Some binding calls cover weakened binding; strength is not graded here.

In the case of “synaptobrevin 2 (VAMP2), endogenous mouse (from UniProt P63044 1-116)”, the binding entry in experiment [1] is given as “binds”. In the case of “synaptophysin (SYP), endogenous mouse (from UniProt Q62277 1-314)”, the binding result in the experiment with β-amyloid peptide Aβ42 was “binds”. For the substance “synaptoporin (SYNPR), endogenous mouse (from UniProt Q8BGN8 1-265)”, the binding result is reported as “no binding” with β-amyloid peptide Aβ42 and “binds” in experiment [2].
